## Primary screen of a compound library

By UniProt entry, the sequences of proteins in these tests, tags left out.
UniProt E9BF75, entry or part of it: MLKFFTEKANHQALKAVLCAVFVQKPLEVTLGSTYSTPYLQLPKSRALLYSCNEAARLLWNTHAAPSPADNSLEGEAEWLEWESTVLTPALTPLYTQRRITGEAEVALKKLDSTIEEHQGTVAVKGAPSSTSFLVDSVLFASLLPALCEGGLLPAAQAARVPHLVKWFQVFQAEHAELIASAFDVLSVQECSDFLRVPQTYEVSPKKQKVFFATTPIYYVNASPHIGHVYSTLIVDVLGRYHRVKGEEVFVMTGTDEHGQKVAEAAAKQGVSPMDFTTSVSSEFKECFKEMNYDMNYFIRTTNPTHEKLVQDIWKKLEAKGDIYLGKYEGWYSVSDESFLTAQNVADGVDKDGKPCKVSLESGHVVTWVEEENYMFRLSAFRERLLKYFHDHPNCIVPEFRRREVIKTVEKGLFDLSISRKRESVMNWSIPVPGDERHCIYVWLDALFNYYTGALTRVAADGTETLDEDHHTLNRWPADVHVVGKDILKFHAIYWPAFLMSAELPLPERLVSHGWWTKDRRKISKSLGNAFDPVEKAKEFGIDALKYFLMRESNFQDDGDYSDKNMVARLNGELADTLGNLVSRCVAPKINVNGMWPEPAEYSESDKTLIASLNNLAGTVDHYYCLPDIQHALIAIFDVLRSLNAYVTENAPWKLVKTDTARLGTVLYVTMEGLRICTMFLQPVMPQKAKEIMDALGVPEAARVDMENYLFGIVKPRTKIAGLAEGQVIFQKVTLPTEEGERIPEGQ

From ChEMBL document CHEMBL3988442, “University of Dundee, Small-Polar-MMV Screening Library” (2021).

All values are in %. The record does not define 0% and 100%; most values in the screen are far below 50% and negative numbers occur (in some assays of this library far below -100). This is an unselected part of the compounds tested.

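Methionyl-tRNA synthetase (putative), Leishmania donovani (UniProt E9BF75). Primary screen of methionyl-tRNA synthetase; the read-out is not stated. The test concentration is not given. Values are per cent inhibition. Size under these conditions: about 68,000 compounds, about 24 of them at 50% or above in at least one test.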

Result for O=C(Cn1cc(-c2ccccc2)ncc1=O)NC1CCCCC1 was 15.6%. O=C(c1cccc(-n2cnnc2)c1)N1C[C@@H](O)[C@H](N2CCOCC2)C1 read 13.95%. O=C(NCCCn1cccn1)c1nnc2ccccc2n1 gave -10.67%. With CN(C)C(=O)c1ccc(C2CCCN2C(=O)c2cccc3c2OCC3)s1 (stereo not given) the screen gave 7.463%. With Cn1ncc2c(N3CCN(C(=O)c4ccsc4)CC3)ncnc21 the screen gave 21.67%. With Cc1cnn(CC2CN(Cc3nnc(C4CC4)o3)CCO2)c1 (stereo not given) the screen gave 4.762%. For O=C(CCc1cnn(-c2ccccc2)c1)N1CCCC(n2cccn2)C1 (stereo not given) the result was 18.37%.

CN(Cc1ccco1)C1CCC12CCN(C(=O)c1ccncc1)CC2 (stereo not given) gave 13.89%. For N#CCCN(CC(F)(F)F)C(=O)c1cc(-n2cccn2)ccn1 the result was 7.494%. Result for CCOC(=O)C(C)NC(=O)N1CCN(c2nc3ccccc3n2C)CC1 (stereo not given) was 5.634%. Result for Cc1cccc(C2(CNC(=O)CO)CCCC2)c1 was 10.99%. For CCc1nc(C(=O)N2CCCC2)nn1-c1c(Cl)cccc1Cl the result was 21.71%. CC(=O)N1CCOC(CNC(=O)c2cccc(CCC(C)(C)O)c2)C1 (stereo not given) read 3.663%. COc1ccccc1C(=O)N1CCCC1c1nncn1CC(C)C (stereo not given) read 17.47%.

O=C(NCc1cccnc1-n1cncn1)c1ccc2c(c1)CCO2 read 17.48%. With O=S(=O)(c1ccc(-c2cnco2)cc1)N1CCCC(O)(CO)CC1 (stereo not given) the screen gave 5.915%. Cn1cc(CN2CC3(CCN(C(=O)c4cscn4)C3)C2)cn1 gave 17.5%. Result for COc1cc2c(cc1CN1CCC3(CCCN(C)C3=O)C1)OCCO2 (stereo not given) was 7.434%. With CCCc1nc(C(=O)NCc2cccnc2-n2cncn2)cs1 the screen gave 3.78%. Result for CC(C)(C)OC(=O)N1CSC[C@@H]1C(=O)NCc1ccsc1 was 10.87%. With COCc1cc(N(C)Cc2ncnn2C)nc(C(C)(C)C)n1 the screen gave 6.793%.

CC(C)(O)CN1CCN(C(=O)COC2CCCCC2)CC1 gave 10.42%. For CN1CCC(Cc2noc(-c3cn(Cc4ccc(F)cc4)nn3)n2)CC1 the result was 14.29%. For O=C(c1cscn1)N1CC[C@@H]2[C@@H]1CCN2C1CCOC1 (stereo not given in full) the result was 9.29%. Result for Cc1cccc(N2CCN(c3ccn4c(=O)[nH]nc4n3)CC2)c1C was 13.66%. CC(C)[C@H]1CN(Cc2ccccn2)C[C@@H]1NC(=O)CC1CCC1 read 7.258%. For CC(C)CNC[C@H]1COCc2nc3cccnc3n21 the result was 5.537%. For CCn1ncc2[nH]c(-c3ccc(OC)c(COC)c3)nc21 the result was 17.98%.

CCC(=O)N1CCC(c2nc(C)ncc2-c2ccncc2)CC1 read 4.658%. With Cc1nc(C)c(C(=O)Nc2cccc(CN3CCC(CO)CC3)c2)o1 the screen gave 10.43%. Cc1ncsc1CCC(=O)NCc1cc2n(n1)CCNC2 read 6.989%. For C=Cc1ccc(CSc2nc3c(c(=O)[nH]2)CN(CCC)CC3)cc1 the result was 12.23%. COc1ccccc1OCCCc1cc(C#N)ccn1 gave 6.183%. Cc1nc(CN2CCCC3(CCN(c4cccnc4)C3=O)C2)cs1 (stereo not given) read 11.11%. With Cc1cc(C)n(CC(C)NC(=O)C2(c3ccccc3F)CC2)n1 (stereo not given) the screen gave 13.73%.

For CC(C)(C)C(=O)N1CCC(c2nc(O)cc(-c3ccncc3)n2)CC1 the result was 17.71%. With CNc1nccnc1C1CN(C(=O)c2c[nH]cn2)CCO1 (stereo not given) the screen gave -0.5319%. Result for CCC1(CC)Cc2ccccc2-c2nc(NCCCO)[nH]c(=O)c21 was 20.41%. Result for O=C1OCC(CO)N1Cc1cccc(Cl)c1F (stereo not given) was 10.08%. Result for O=C(c1cccnc1O)N1CCN(Cc2ccccc2F)CC1 was 6.609%. CC(C)c1n[nH]c(C2CN(Cc3nnc(C4CC4)o3)CCO2)n1 (stereo not given) read -4.225%. Result for CC(C)N1CCOC(c2ccnc(N(C)C)n2)C1 (stereo not given) was 21.07%.

Cc1cc(CNC(=O)Cc2cccs2)ccc1S(C)(=O)=O read 5.017%. Result for CC(C)SCc1cccc(NC2CCN(C)C2=O)c1 (stereo not given) was 8.362%. Result for O=C1CO[C@@H]2CN(CC3CCOCC3)C[C@H]2N1Cc1ccncc1 was 21.47%. O=C(c1cscn1)N1CCC2(CCN(S(=O)(=O)c3ccccc3)C2)C1 (stereo not given) read 7.801%. CC(=O)NCCNC(=O)C(c1ccccc1C)N(C)C (stereo not given) gave -2.145%. For CC(=O)N1CC[C@@]2(O)CCCC[C@H]2[C@@H]1c1ccc2c(c1)OCO2 the result was 5.376%. For Cc1nnc2n1CCN(Cc1csc(-c3ncccn3)n1)C2 the result was -1.111%.

With Cc1cc(-c2cnc(NCc3cccnc3)nc2C(C)C)on1 the screen gave 6.62%. For Cn1cc(CNC(=O)C2CCCN(Cc3cccc(F)c3)C2)cn1 (stereo not given) the result was 18.13%. For Cc1occc1C(=O)N1CC(C(=O)N2CCOCC2)C2(CCOCC2)C1 (stereo not given) the result was 5.674%. Result for NC(=O)c1ccc(NC(=O)N2CCN(c3cccs3)CC2)c(F)c1 was 15.5%. Result for CCCc1cc(N(CCOC)CC(F)F)n2ncnc2n1 was 8.362%. With COCCC(=O)N1CCCC(c2nc(O)cc(-c3ccncc3)n2)C1 (stereo not given) the screen gave 6.25%. For O=C(CCCn1ccnc1)NC1CCCN(c2ccccc2Cl)C1 (stereo not given) the result was 4.334%.

For reference, 3 entries once more:

| structure | Inhibition |
|---|---|
| `Cn1cc(CN2CC3(CCN(C(=O)c4cscn4)C3)C2)cn1` | 17.5 |
| `O=C1OCC(CO)N1Cc1cccc(Cl)c1F` (stereo not given) | 10.08 |
| `CC(C)(C)C(=O)N1CCC(c2nc(O)cc(-c3ccncc3)n2)CC1` | 17.71 |